Data source: PubChem BioAssay AID1224828 (NIAID, 2016)

- Screen: 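Knock-downs that increase or decrease LPS-induced p65 nuclear translocation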 (primary screen)
- Cell system: mouse RAW264.7 G9 macrophage reporter cells (GFP-p65, Tnf promoter-mCherry)
- Reagent: siRNA pool against mouse genes, 100 nM
- Time to read-out: 2 days siRNA transfection, then 40 min LPS before fixation
- Conditions: LPS (Salmonella minnesota R595) at 10 ng/ml
- Read-out: 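Microscopy ratio of nuclear to perinuclear-ring GFP-p65 signal, scaled to the plate median; gene score is the average of two replicate robust z-scores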
- Reading the numbers: p65 translocation robust z-score: higher = more nuclear NF-kappaB p65 after LPS than the plate median; nuclear/cytoplasmic p65 ratio: higher = more nuclear NF-kappaB p65
- Hit rule: 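Active if robust z is above 3.3 (negative regulators) or below -1.56, the Tlr4 control median (positive regulators); activity score 50 or more; control wells not called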
- Meaning of the calls: active = hit (p65 shift raised or lowered); inactive = no clear change
Here is one part, drawn at random, of about 17,000 reagents tested. Over the whole deposit, 762 (4.5%) were called active. 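Active calls include both raised and lowered p65 entry, mostly lowered; wells with fewer than 50 cells lack a z-score.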 The raw values are shown without normalisation. A number with no mark means an inactive call. Reagents against one gene are numbered here. Some reagents were tested in more than one well and are listed for each.

target gene | reagent | p65 translocation robust z-score | nuclear/cytoplasmic p65 ratio, rep 1 | nuclear/cytoplasmic p65 ratio, rep 2 | low cell count flag
Gng4 | 1 | 0.06 | 1.49 | 1.61 | enough cells to score
Fancl | 1 | 1.22 | 1.76 | 1.43 | enough cells to score
Wdr74 | 1 | – | 1.16 | 1.04 | fewer than 50 cells per well; well left out of scoring
Bsn | 1 | -1.93 (active) | 1.17 | 1.24 | enough cells to score
Scly | 1 | – | 1.34 | 1.29 | fewer than 50 cells per well; well left out of scoring
Ptcd3 | 1 | – | 1.24 | 1.41 | fewer than 50 cells per well; well left out of scoring
Nwd1 | 1 | – | 1.13 | 1.57 | fewer than 50 cells per well; well left out of scoring
Pbk | 1 | -0.71 | 1.68 | 1.2 | enough cells to score
Sh3bp4 | 1 | 1.19 | 1.65 | 1.8 | enough cells to score
Pdlim2 | 1 | – | 1.15 | 1.01 | fewer than 50 cells per well; well left out of scoring
Itm2a | 1 | -0.65 | 1.42 | 1.38 | enough cells to score
Pop5 | 1 | -0.73 | 1.29 | 1.13 | enough cells to score
Ripk4 | 1 | -0.21 | 1.51 | 1.36 | enough cells to score
Cmpk1 | 1 | – | 2.27 | 1.44 | fewer than 50 cells per well; well left out of scoring
Cmpk1 | 1 | 1.45 | 1.66 | 1.72 | enough cells to score
Pcid2 | 1 | -0.71 | 1.27 | 1.43 | enough cells to score
Rptor | 1 | 0.52 | 1.71 | 1.67 | enough cells to score
Rd3 | 1 | – | 1.03 | 0.995 | fewer than 50 cells per well; well left out of scoring
Csdc2 | 1 | 1.51 | 1.85 | 1.9 | enough cells to score
Ap2m1 | 1 | -0.47 | 1.47 | 1.68 | enough cells to score
Akirin1 | 1 | -0.67 | 1.33 | 1.32 | enough cells to score
Zfp521 | 1 | 0.54 | 1.45 | 1.35 | enough cells to score
Exoc3l | 1 | 0.71 | 1.74 | 1.85 | enough cells to score
Or1e16 | 1 | 1.45 | 1.88 | 1.79 | enough cells to score
Chrd | 1 | 1.19 | 1.76 | 1.99 | enough cells to score
Nup37 | 1 | -0.55 | 1.62 | 1.46 | enough cells to score
Igflr1 | 1 | -1.73 (active) | 1.42 | 1.32 | enough cells to score
Usp2 | 1 | 0.9 | 1.6 | 1.67 | enough cells to score
Arhgap24 | 1 | 0.38 | 1.63 | 1.59 | enough cells to score
Arhgap33 | 1 | 0.11 | 1.44 | 1.24 | enough cells to score
Mcts2 | 1 | – | 1.35 | 1.27 | fewer than 50 cells per well; well left out of scoring
Bri3 | 1 | – | 1.28 | 1.56 | fewer than 50 cells per well; well left out of scoring
Apba2 | 1 | 0.93 | 1.61 | 1.77 | enough cells to score
Psd3 | 1 | -0.08 | 1.58 | 1.51 | enough cells to score
Psd3 | 2 | -0.72 | 1.5 | 1.69 | enough cells to score
Lancl2 | 1 | 1.36 | 1.65 | 1.7 | enough cells to score
Fndc3b | 1 | 0.12 | 1.51 | 1.51 | enough cells to score
Fahd2a | 1 | 0.19 | 1.64 | 1.64 | enough cells to score
Jmjd8 | 1 | -0.08 | 1.34 | 1.5 | enough cells to score
Mrgprb8 | 1 | 1.47 | 2.06 | 1.78 | enough cells to score
Csrp1 | 1 | 0.06 | 1.57 | 1.31 | enough cells to score
Dstn | 1 | -0.92 | 1.3 | 1.25 | enough cells to score
Or10j5 | 1 | 0.2 | 1.59 | 1.49 | enough cells to score
Pdx1 | 1 | 0.04 | 1.51 | 1.35 | enough cells to score
1700088E04Rik | 1 | 0.2 | 1.36 | 1.51 | enough cells to score
Resp18 | 1 | -0.87 | 1.31 | 1.12 | enough cells to score
Spaar | 1 | -0.06 | 1.25 | 1.57 | enough cells to score
Galnt10 | 1 | 0.27 | 1.65 | 1.48 | enough cells to score
Dcun1d4 | 1 | 1.62 | 1.83 | 1.55 | enough cells to score
Trip4 | 1 | -0.6 | 1.55 | 1.3 | enough cells to score
Spty2d1 | 1 | -0.54 | 1.25 | 1.44 | enough cells to score
Col9a3 | 1 | 0.73 | 1.47 | 1.57 | enough cells to score
Slc10a1 | 1 | -0.21 | 1.48 | 1.56 | enough cells to score
Tmt1a | 1 | – | 1.14 | 1.11 | fewer than 50 cells per well; well left out of scoring
Efcab7 | 1 | -1.06 | 1.48 | 1.6 | enough cells to score
Nlrp4a | 1 | 2.61 | 1.85 | 1.66 | enough cells to score
Slc16a7 | 1 | 0.43 | 1.54 | 1.31 | enough cells to score
Vmn1r37 | 1 | -0.09 | 1.35 | 1.24 | enough cells to score
Trim36 | 1 | – | 1.23 | 1.53 | fewer than 50 cells per well; well left out of scoring

Reformatted: results already given
target gene	reagent	p65 translocation robust z-score	nuclear/cytoplasmic p65 ratio, rep 1	nuclear/cytoplasmic p65 ratio, rep 2	low cell count flag
Pbk	1	-0.71	1.68	1.2	enough cells to score
Sh3bp4	1	1.19	1.65	1.8	enough cells to score
Pdlim2	1		1.15	1.01	fewer than 50 cells per well; well left out of scoring
Itm2a	1	-0.65	1.42	1.38	enough cells to score
Pop5	1	-0.73	1.29	1.13	enough cells to score
Ripk4	1	-0.21	1.51	1.36	enough cells to score
Cmpk1	1		2.27	1.44	fewer than 50 cells per well; well left out of scoring
